Results are given in words; binding and its absence hold for the method and conditions named. Binding seen in cells or lysates may run through a third protein. Some results given as binding are weak or reduced against the parent protein; the word gives no strength.

Sequences of proteins named here, by UniProt entry; tags and fusion partners are left off. A change or cut given only in a name is not applied to a line headed by its entry. Residues count along the entry.
UniProt P18887: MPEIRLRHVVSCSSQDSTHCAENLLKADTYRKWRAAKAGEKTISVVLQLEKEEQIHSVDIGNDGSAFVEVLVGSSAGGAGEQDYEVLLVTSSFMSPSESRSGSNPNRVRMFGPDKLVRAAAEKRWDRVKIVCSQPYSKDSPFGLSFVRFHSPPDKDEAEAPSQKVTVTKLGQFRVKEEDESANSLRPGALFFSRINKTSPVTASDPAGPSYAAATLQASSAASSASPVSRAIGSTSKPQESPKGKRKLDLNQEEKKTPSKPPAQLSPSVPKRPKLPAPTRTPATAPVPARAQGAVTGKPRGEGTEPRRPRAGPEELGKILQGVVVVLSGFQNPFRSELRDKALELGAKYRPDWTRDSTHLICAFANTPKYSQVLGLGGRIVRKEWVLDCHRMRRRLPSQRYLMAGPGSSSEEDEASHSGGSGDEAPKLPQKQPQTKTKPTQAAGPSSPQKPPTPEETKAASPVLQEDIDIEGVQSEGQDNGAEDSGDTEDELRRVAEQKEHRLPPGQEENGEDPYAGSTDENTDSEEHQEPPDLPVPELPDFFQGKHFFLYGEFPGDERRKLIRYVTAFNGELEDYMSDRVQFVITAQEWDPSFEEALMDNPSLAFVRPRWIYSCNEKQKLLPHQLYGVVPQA
EGFP-XRCC1^161–406: residues 161-406 of P18887
UniProt P09874: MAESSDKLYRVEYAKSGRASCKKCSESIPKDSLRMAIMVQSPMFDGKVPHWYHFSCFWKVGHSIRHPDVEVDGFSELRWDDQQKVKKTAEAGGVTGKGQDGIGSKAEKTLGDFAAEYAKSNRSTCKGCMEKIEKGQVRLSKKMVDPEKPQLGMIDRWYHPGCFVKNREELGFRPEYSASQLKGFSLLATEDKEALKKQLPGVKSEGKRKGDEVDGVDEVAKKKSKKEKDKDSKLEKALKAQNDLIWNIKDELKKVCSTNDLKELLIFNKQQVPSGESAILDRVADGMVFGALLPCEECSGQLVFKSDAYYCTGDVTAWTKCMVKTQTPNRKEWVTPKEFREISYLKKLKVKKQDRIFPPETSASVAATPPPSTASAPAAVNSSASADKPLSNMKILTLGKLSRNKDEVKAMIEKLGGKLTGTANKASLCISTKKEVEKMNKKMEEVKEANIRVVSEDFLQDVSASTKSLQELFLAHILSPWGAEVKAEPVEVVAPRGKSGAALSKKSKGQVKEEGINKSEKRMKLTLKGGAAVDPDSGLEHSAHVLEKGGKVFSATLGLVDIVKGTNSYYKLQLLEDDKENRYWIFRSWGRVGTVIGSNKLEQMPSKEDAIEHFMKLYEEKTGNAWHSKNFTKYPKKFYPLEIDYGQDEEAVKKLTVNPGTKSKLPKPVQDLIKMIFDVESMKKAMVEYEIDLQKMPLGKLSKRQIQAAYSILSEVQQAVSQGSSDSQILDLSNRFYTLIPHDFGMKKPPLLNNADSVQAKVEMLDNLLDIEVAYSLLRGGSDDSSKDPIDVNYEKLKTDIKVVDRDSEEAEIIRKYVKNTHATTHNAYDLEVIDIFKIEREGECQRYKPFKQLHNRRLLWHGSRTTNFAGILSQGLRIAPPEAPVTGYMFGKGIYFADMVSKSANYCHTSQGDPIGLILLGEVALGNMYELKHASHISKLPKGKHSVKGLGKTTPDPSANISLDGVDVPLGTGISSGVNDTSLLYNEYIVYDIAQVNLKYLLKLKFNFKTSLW

Assay [1] concerns the target EGFP-XRCC1^161–406 (human) (UniProt P18887). The assay can be described thus: co-IP; U2OS cells transiently co-transfected with EGFP-XRCC1 161-406 constructs and mCherry-PARP1 constructs; GFP-Trap beads from whole cell extract; 25 mM HEPES pH 7.8, 150 mM NaCl, 10% glycerol, 0.5% Triton X-100; blot with anti-GFP and anti-PARP1.
Assay [2] addresses full length EGFP-XRCC1 (human) (UniProt P18887). Kind of assay: co-IP; EGFP-XRCC1 recovered on GFP-Trap beads from extract of stably transfected U2OS^GFP-XRCC1 cells; 25 mM HEPES pH 7.8, 150 mM NaCl, 10% glycerol, 0.5% Triton X-100; blot with anti-PARP1; with or without PARP inhibitor (500 nM Ku-58948) in the medium for 1 h and in the lysis buffer.

As to “mCherry-PARP1^E988K (from UniProt P09874 1-1014) (enzyme)”, the binding entry in assay [1] is on record as “binds”.

For “endogenous PARP1 (from UniProt P09874 1-1014) (enzyme)”, the binding result in assay [2] is “binds”.

Turning to “mCherry-PARP1 (from UniProt P09874 1-1014) (enzyme)”, the binding result in assay [1] is “binds”.

The values are drawn from article PMC4538820, “The XRCC1 phosphate-binding pocket binds poly (ADP-ribose) and is required for XRCC1 function” (Nucleic Acids Research, 2015).
